This note sets out measurements from PubChem BioAssay AID504339 (National Center for Advancing Translational Sciences (NCATS), 2011).

Chains of the proteins cited; added tags and fusions are not shown. Lines headed by an entry give the natural chain unless they say otherwise; changes in a name come on top.
UniProt O75164: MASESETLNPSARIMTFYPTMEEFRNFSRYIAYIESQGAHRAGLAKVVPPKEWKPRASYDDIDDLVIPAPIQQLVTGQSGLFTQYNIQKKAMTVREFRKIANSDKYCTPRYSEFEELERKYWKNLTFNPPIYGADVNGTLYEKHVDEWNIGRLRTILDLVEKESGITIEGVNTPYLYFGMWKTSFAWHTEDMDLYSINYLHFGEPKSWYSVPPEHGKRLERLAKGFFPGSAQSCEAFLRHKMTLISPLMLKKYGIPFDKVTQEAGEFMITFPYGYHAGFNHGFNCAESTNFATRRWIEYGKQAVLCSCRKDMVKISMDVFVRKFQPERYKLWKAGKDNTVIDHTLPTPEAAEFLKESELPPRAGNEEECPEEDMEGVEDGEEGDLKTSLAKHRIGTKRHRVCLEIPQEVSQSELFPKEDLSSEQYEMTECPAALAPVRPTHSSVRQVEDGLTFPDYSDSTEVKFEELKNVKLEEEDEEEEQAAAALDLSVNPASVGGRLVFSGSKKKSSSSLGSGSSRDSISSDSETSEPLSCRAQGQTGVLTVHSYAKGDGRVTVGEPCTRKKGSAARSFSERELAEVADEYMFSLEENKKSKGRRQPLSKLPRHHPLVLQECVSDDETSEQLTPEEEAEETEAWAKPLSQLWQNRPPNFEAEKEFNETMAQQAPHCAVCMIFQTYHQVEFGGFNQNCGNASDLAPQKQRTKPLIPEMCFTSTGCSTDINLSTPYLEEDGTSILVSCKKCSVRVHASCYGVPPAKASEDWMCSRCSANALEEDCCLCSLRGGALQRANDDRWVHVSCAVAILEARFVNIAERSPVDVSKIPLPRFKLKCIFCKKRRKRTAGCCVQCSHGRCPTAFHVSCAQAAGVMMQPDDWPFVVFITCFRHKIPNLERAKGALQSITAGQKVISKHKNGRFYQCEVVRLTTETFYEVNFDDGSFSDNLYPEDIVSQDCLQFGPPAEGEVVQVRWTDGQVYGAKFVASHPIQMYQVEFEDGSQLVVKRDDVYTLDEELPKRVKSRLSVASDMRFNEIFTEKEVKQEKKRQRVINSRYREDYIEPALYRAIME

Only a part is listed here, and it is no random draw. Inconclusive results are not listed. Active and inactive are the calls of the source. Calls come from the whole dose curve; as a rule, active = well fitted inhibition curve with a large enough effect; inconclusive = small, poorly fitted or top-dose-only effect; inactive = no such curve, though single readings can be large or run the other way.
Potency is the fitted concentration of half-maximal effect.

The target in this assay is Lysine-specific demethylase 4A (Homo sapiens) (UniProt O75164). Description: qHTS Assay for Inhibitors of JMJD2A-Tudor Domain. Note: nearly all actives have a fitted effect of over 50% in size. Conditions: AlphaScreen JMJD2A-Tudor / H3K4me3 peptide binding. The source says:
JMJD2A is a jumonji-domain-containing lysine demethylase that uses Fe(II) together with 2-OG to effect oxidative demethylation of histones. Methylation is one of many […] modification that affect epigenetic transcription. […] It is proposed that the functions of JmjD2A binding to the histones, is to maintain marks after they are installed and to spread the modifications by […], establishing a self-propagating cycle for rapid methylation over a large area of chromatin. […] A quantitative high throughput AlphaScreen has been developed to identify small molecule inhibitors based on a protocol published by NCGC and SGC [4]. […]
[2] Yasgar, et al. Compound Management for Quantitative High-Throughput Screening. […]
[3] Inglese, et al. Quantitative high-throughput screening: a titration-based approach that efficiently identifies biological activities in large chemical libraries. […]
To each well of a 1,536w plate, 2ul of JMJD2A-Tudor (final 100nM) and 1ul biotinylated histone peptide methylated at Lys4 [b-H3(1-18)K4me3] […] Microplates were then read on an EnVision multilabel plate reader using the 1,536 plate HTS AlphaScreen aperture (excitation time 80 ms, measurement time 240 ms).
(Quantitative high-throughput screening tests each substance at several concentrations.)
With `O=C(O)COCCN1CCN(C(c2ccccc2)c2ccc(Cl)cc2)CC1` (stereo unspecified), the Potency was active: 79.4 µM.
